Data on two molecules can be found in US12280047B2, “Treatment of aneurysms” (Georgia State Research Foundation, Inc., priority 2017, dated 2025).

Chains of the proteins cited; added tags and fusions are not shown. Lines headed by an entry give the natural chain unless they say otherwise; changes in a name come on top.
UniProt P01019: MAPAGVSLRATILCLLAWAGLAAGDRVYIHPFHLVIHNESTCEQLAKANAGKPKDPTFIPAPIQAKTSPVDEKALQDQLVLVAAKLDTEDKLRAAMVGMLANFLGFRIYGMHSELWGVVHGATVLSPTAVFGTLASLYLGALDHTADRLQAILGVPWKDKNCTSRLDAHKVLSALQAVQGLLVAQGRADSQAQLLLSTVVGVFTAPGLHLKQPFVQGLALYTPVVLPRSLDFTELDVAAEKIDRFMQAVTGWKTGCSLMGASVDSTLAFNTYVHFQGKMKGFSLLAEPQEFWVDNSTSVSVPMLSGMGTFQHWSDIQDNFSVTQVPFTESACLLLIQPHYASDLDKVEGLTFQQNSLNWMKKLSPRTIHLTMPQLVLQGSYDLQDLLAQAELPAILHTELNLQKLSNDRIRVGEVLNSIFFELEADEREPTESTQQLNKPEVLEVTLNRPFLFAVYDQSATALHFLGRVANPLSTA

Series [1] deals with ApoE−/− and ApoE−/−/IDO−/− mice. The experiment in a line: Serum lipid and glucose level in 3-HAA-injected mice. The series is classed as in vivo. As to conditions: 3-HAA 200 mg/kg/d i.p., 6 weeks, mean ± s.e.m.; for Cholesterol / Triglyceride: serum.
Series [2] has the same test system. The experiment in a line: Serum lipid and glucose level in AngII-infused mice. The series is classed as in vivo. Particulars: 4 weeks, mean ± s.e.m.; for Cholesterol / Triglyceride: serum.

In the case of `Nc1c(O)cccc1C(=O)O` [3-HAA, 3-Hydroxyanthranilic acid], in series [1] (Apoe−/− mice), the BG was 137 ± 24 mg/dL, the Cholesterol was 471 ± 26.6 mg/dL and the Triglyceride is 131.5 ± 5.5 mg/dL. In series [1] (Apoe−/−/IDO−/− mice), this molecule came in with a BG of 132 ± 29 mg/dL, a Cholesterol of 470.8 ± 30.8 mg/dL and a Triglyceride of 123.4 ± 10.1 mg/dL.

Consider “Angiotensin II (DRVYIHPF; Angiotensin-2; UniProt P01019 25-32, looked up) [AngII, Angiotensin II (Sigma, A9525) infused to induce AAA in mice]”, for which, in series [2] (Apoe−/− mice), the BG worked out at 151 ± 27 mg/dll, the Cholesterol was 496.1 ± 22.0 mg/dL and the Triglyceride was determined as 125 ± 12.6 mg/dL. Also, in series [2] (Apoe−/−/IDO−/− mice), the BG came to 142 ± 19 mg/dll, the Cholesterol amounted to 497.9 ± 24.2 mg/dL and the Triglyceride is 108.3 ± 19^ mg/dl.
